Measurements published in PMC11540652.
These are yes or no findings as the source states them, for the method shown. Binding seen in cells or lysates may run through a third protein. Some binding calls cover weakened binding; strength is not graded here. Sequences can lack the tags named with a protein.

What was measured:
Assay in all cases: co-IP
[1] = target: 6×Myc-N(270–419) (SARS-CoV-2) (UniProt P0DTC9)
[2] = target: 6×Myc-N(80–419) (SARS-CoV-2) (UniProt P0DTC9)
[3] = target: 6×Myc-N(200–419) (SARS-CoV-2) (UniProt P0DTC9)

Measured: binding

B1: HA-Herc5 (enzyme, UniProt Q9UII4 1-1024)
chain: MERRSRRKSRRNGRSTAGKAAATQPAKSPGAQLWLFPSAAGLHRALLRRVEVTRQLCCSPGRLAVLERGGAGVQVHQLLAGSGGARTPKCIKLGKNMKIHSVDQGAEHMLILSSDGKPFEYDNYSMKHLRFESILQEKKIIQITCGDYHSLALSKGGELFAWGQNLHGQLGVGRKFPSTTTPQIVEHLAGVPLAQISAGEAHSMALSMSGNIYSWGKNECGQLGLGHTESKDDPSLIEGLDNQKVEFVACGGSHSALLTQDGLLFTFGAGKHGQLGHNSTQNELRPCLVAELVGYRVTQIACGRWHTLAYVSDLGKVFSFGSGKDGQLGNGGTRDQLMPLPVKVSSSEELKLESHTSEKELIMIAGGNQSILLWIKKENSYVNLKRTIPTLNEGTVKRWIADVETKRWQSTKREIQEIFSSPACLTGSFLRKRRTTEMMPVYLDLNKARNIFKELTQKDWITNMITTCLKDNLLKRLPFHSPPQEALEIFFLLPECPMMHISNNWESLVVPFAKVVCKMSDQSSLVLEEYWATLQESTFSKLVQMFKTAVICQLDYWDESAEENGNVQALLEMLKKLHRVNQVKCQLPESIFQVDELLHRLNFFVEVCRRYLWKMTVDASENVQCCVIFSHFPFIFNNLSKIKLLHTDTLLKIESKKHKAYLRSAAIEEERESEFALRPTFDLTVRRNHLIEDVLNQLSQFENEDLRKELWVSFSGEIGYDLGGVKKEFFYCLFAEMIQPEYGMFMYPEGASCMWFPVKPKFEKKRYFFFGVLCGLSLFNCNVANLPFPLALFKKLLDQMPSLEDLKELSPDLGKNLQTLLDDEGDNFEEVFYIHFNVHWDRNDTNLIPNGSSITVNQTNKRDYVSKYINYIFNDSVKAVYEEFRRGFYKMCDEDIIKLFHPEELKDVIVGNTDYDWKTFEKNARYEPGYNSSHPTIVMFWKAFHKLTLEEKKKFLVFLTGTDRLQMKDLNNMKITFCCPESWNERDPIRALTCFSVLFLPKYSTMETVEEALQEAINNNRGFG
binds: [1] | [2] | [3]
